# From the supplement of paper PMC8728848
# The other results are listed elsewhere or left out.
# What was measured:
# Experiment in all cases: glycan array binding signal (z-score within array); higher = stronger binding
# Conditions in all cases: glycan notation: IUPAC condensed, linker removed
# [1] = biological target: GlcNAc(b1-3)Gal(b1-3)GalNAc
# Procedure, shortened: (§1)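 Glycan array data came from 3228 arrays in the Consortium for Functional Glycomics database, and only arrays with an available protein sequence were kept. Glycan names were put into IUPAC-condensed notation, and columns mapping to the same glycan were averaged. The binding signal is a within-array Z-score, averaged across arrays of one protein sequence run at different concentrations or buffers and across linkers. A negative Z-score can be read as non-binding.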
# GlcNAc(b1-3)Gal(b1-4)Glc = biological target: GlcNAc(b1-3)Gal(b1-4)Glc
# Procedure, shortened: as §1
# [2] = biological target: GlcNAc(b1-3)Gal(b1-4)GlcNAc
# Procedure, shortened: as §1
# [3] = biological target: GlcNAc(b1-3)Gal(b1-4)GlcNAc(b1-2)Man(a1-3)[GlcNAc(b1-3)Gal(b1-4)GlcNAc(b1-2)Man(a1-6)]Man(b1-4)GlcNAc(b1-4)GlcNAc
# Procedure, shortened: as §1
# [4] = biological target: GlcNAc(b1-3)Gal(b1-4)GlcNAc(b1-2)Man(a1-3)[GlcNAc(b1-3)Gal(b1-4)GlcNAc(b1-2)Man(a1-6)]Man(b1-4)GlcNAc(b1-4)[Fuc(a1-6)]GlcNAc
# Procedure, shortened: as §1
# [5] = biological target: GlcNAc(b1-3)Gal(b1-4)GlcNAc(b1-2)[GlcNAc(b1-3)Gal(b1-4)GlcNAc(b1-6)]Man(a1-6)[GlcNAc(b1-3)Gal(b1-4)GlcNAc(b1-2)Man(a1-3)]Man(b1-4)GlcNAc(b1-4)GlcNAc
# Procedure, shortened: as §1
# [6] = biological target: GlcNAc(b1-3)Gal(b1-4)GlcNAc(b1-3)Gal(b1-4)GlcNAc
# Procedure, shortened: as §1
# [7] = biological target: GlcNAc(b1-3)Gal(b1-4)GlcNAc(b1-3)Gal(b1-4)GlcNAc(b1-2)Man(a1-3)[GlcNAc(b1-3)Gal(b1-4)GlcNAc(b1-3)Gal(b1-4)GlcNAc(b1-2)Man(a1-6)]Man(b1-4)GlcNAc(b1-4)GlcNAc
# Procedure, shortened: as §1
# [8] = biological target: GlcNAc(b1-3)Gal(b1-4)GlcNAc(b1-3)Gal(b1-4)GlcNAc(b1-2)Man(a1-3)[GlcNAc(b1-3)Gal(b1-4)GlcNAc(b1-3)Gal(b1-4)GlcNAc(b1-2)Man(a1-6)]Man(b1-4)GlcNAc(b1-4)[Fuc(a1-6)]GlcNAc
# Procedure, shortened: as §1
# [9] = biological target: GlcNAc(b1-3)Gal(b1-4)GlcNAc(b1-3)Gal(b1-4)GlcNAc(b1-2)[GlcNAc(b1-3)Gal(b1-4)GlcNAc(b1-3)Gal(b1-4)GlcNAc(b1-6)]Man(a1-6)[GlcNAc(b1-3)Gal(b1-4)GlcNAc(b1-3)Gal(b1-4)GlcNAc(b1-2)Man(a1-3)]Man(b1-4)GlcNAc(b1-4)[Fuc(a1-6)]GlcNAc
# Procedure, shortened: as §1
# [10] = biological target: GlcNAc(b1-3)Gal(b1-4)GlcNAc(b1-3)Gal(b1-4)GlcNAc(b1-3)Gal(b1-4)GlcNAc(b1-2)Man(a1-3)[GlcNAc(b1-3)Gal(b1-4)GlcNAc(b1-3)Gal(b1-4)GlcNAc(b1-3)Gal(b1-4)GlcNAc(b1-2)Man(a1-6)]Man(b1-4)GlcNAc(b1-4)GlcNAc
# Procedure, shortened: as §1
# [11] = biological target: GlcNAc(b1-3)Gal(b1-4)GlcNAc(b1-3)Gal(b1-4)GlcNAc(b1-3)Gal(b1-4)GlcNAc(b1-2)Man(a1-3)[GlcNAc(b1-3)Gal(b1-4)GlcNAc(b1-3)Gal(b1-4)GlcNAc(b1-3)Gal(b1-4)GlcNAc(b1-2)Man(a1-6)]Man(b1-4)GlcNAc(b1-4)[Fuc(a1-6)]GlcNAc
# Procedure, shortened: as §1
# [12] = biological target: GlcNAc(b1-3)Gal(b1-4)GlcNAc(b1-3)Gal(b1-4)GlcNAc(b1-3)Gal(b1-4)GlcNAc(b1-2)[GlcNAc(b1-3)Gal(b1-4)GlcNAc(b1-3)Gal(b1-4)GlcNAc(b1-3)Gal(b1-4)GlcNAc(b1-6)]Man(a1-6)[GlcNAc(b1-3)Gal(b1-4)GlcNAc(b1-3)Gal(b1-4)GlcNAc(b1-3)Gal(b1-4)GlcNAc(b1-2)Man(a1-3)]Man(b1-4)GlcNAc(b1-4)[Fuc(a1-6)]GlcNAc
# Procedure, shortened: as §1
# [13] = biological target: GlcNAc(b1-3)Gal(b1-4)GlcNAc(b1-3)Gal(b1-4)GlcNAc(b1-3)Gal(b1-4)GlcNAc(b1-3)Gal(b1-4)GlcNAc(b1-2)Man(a1-3)[GlcNAc(b1-3)Gal(b1-4)GlcNAc(b1-3)Gal(b1-4)GlcNAc(b1-3)Gal(b1-4)GlcNAc(b1-3)Gal(b1-4)GlcNAc(b1-2)Man(a1-6)]Man(b1-4)GlcNAc(b1-4)GlcNAc
# Procedure, shortened: as §1
# [14] = biological target: GlcNAc(b1-3)Gal(b1-4)GlcNAc(b1-3)Gal(b1-4)GlcNAc(b1-3)Gal(b1-4)GlcNAc(b1-3)Gal(b1-4)GlcNAc(b1-2)Man(a1-3)[GlcNAc(b1-3)Gal(b1-4)GlcNAc(b1-3)Gal(b1-4)GlcNAc(b1-3)Gal(b1-4)GlcNAc(b1-3)Gal(b1-4)GlcNAc(b1-2)Man(a1-6)]Man(b1-4)GlcNAc(b1-4)[Fuc(a1-6)]GlcNAc
# Procedure, shortened: as §1
# [15] = biological target: GlcNAc(b1-3)Gal(b1-4)GlcNAc(b1-3)Gal(b1-4)GlcNAc(b1-3)Gal(b1-4)GlcNAc(b1-3)Gal(b1-4)GlcNAc(b1-2)[GlcNAc(b1-3)Gal(b1-4)GlcNAc(b1-3)Gal(b1-4)GlcNAc(b1-3)Gal(b1-4)GlcNAc(b1-3)Gal(b1-4)GlcNAc(b1-6)]Man(a1-6)[GlcNAc(b1-3)Gal(b1-4)GlcNAc(b1-3)Gal(b1-4)GlcNAc(b1-3)Gal(b1-4)GlcNAc(b1-3)Gal(b1-4)GlcNAc(b1-2)Man(a1-3)]Man(b1-4)GlcNAc(b1-4)[Fuc(a1-6)]GlcNAc
# Procedure, shortened: as §1
# [16] = biological target: GlcNAc(b1-3)Gal(b1-4)GlcNAc(b1-3)Gal(b1-4)GlcNAc(b1-3)GalNAc
# Procedure, shortened: as §1
# [17] = biological target: GlcNAc(b1-3)Gal(b1-4)GlcNAc(b1-3)GalNAc
# Procedure, shortened: as §1
# [18] = biological target: GlcNAc(b1-3)Gal(b1-4)GlcNAc(b1-3)[GlcNAc(b1-3)Gal(b1-4)GlcNAc(b1-3)]GalNAc
# Procedure, shortened: as §1
# [19] = biological target: GlcNAc(b1-3)Gal(b1-4)GlcNAc(b1-6)[Gal(b1-3)]GalNAc
# Procedure, shortened: as §1
# [20] = biological target: GlcNAc(b1-3)Gal(b1-4)GlcNAc(b1-6)[GlcNAc(b1-3)Gal(b1-3)]GalNAc
# Procedure, shortened: as §1
# [21] = biological target: GlcNAc(b1-3)Gal(b1-4)GlcNAc(b1-6)[GlcNAc(b1-3)]Gal(b1-4)GlcNAc
# Procedure, shortened: as §1
# GlcNAc(b1-3)GalNAc = biological target: GlcNAc(b1-3)GalNAc
# Procedure, shortened: as §1
# GlcNAc(b1-3)Man = biological target: GlcNAc(b1-3)Man
# Procedure, shortened: as §1
# [22] = biological target: GlcNAc(b1-3)[GlcNAc(b1-4)][GlcNAc(b1-6)]GlcNAc
# Procedure, shortened: as §1
# [23] = biological target: GlcNAc(b1-3)[GlcNAc(b1-6)]Gal(b1-4)GlcNAc
# Procedure, shortened: as §1
# [24] = biological target: GlcNAc(b1-3)[GlcNAc(b1-6)]GalNAc
# Procedure, shortened: as §1
# [25] = biological target: GlcNAc(b1-4)Gal(b1-4)GlcNAc
# Procedure, shortened: as §1
# GlcNAc(b1-4)GlcNAc = biological target: GlcNAc(b1-4)GlcNAc
# Procedure, shortened: as §1
# [26] = biological target: GlcNAc(b1-4)GlcNAc(b1-4)GlcNAc
# Procedure, shortened: as §1
# [27] = biological target: GlcNAc(b1-4)GlcNAc(b1-4)GlcNAc(b1-4)GlcNAc(b1-4)GlcNAc
# Procedure, shortened: as §1
# [28] = biological target: GlcNAc(b1-4)GlcNAc(b1-4)GlcNAc(b1-4)GlcNAc(b1-4)GlcNAc(b1-4)GlcNAc
# Procedure, shortened: as §1
# [29] = biological target: GlcNAc(b1-4)[GlcNAc(b1-6)]GalNAc
# Procedure, shortened: as §1
# [30] = biological target: GlcNAc(b1-6)Gal(b1-4)GlcNAc
# Procedure, shortened: as §1
# GlcNAc(b1-6)GalNAc = biological target: GlcNAc(b1-6)GalNAc
# Procedure, shortened: as §1
# [31] = biological target: GlcNAc6S(b1-3)Gal(b1-4)GlcNAc
# Procedure, shortened: as §1
# Kdn(a2-3)Gal(b1-3)GalNAc = biological target: Kdn(a2-3)Gal(b1-3)GalNAc
# Procedure, shortened: as §1
# Kdn(a2-3)Gal(b1-3)GlcNAc = biological target: Kdn(a2-3)Gal(b1-3)GlcNAc
# Procedure, shortened: as §1
# Kdn(a2-3)Gal(b1-4)Glc = biological target: Kdn(a2-3)Gal(b1-4)Glc
# Procedure, shortened: as §1
# Kdn(a2-3)Gal(b1-4)GlcNAc = biological target: Kdn(a2-3)Gal(b1-4)GlcNAc
# Procedure, shortened: as §1
# [32] = biological target: Kdn(a2-3)Gal(b1-4)[Fuc(a1-3)]GlcNAc
# Procedure, shortened: as §1
# Kdn(a2-6)Gal(b1-4)GlcNAc = biological target: Kdn(a2-6)Gal(b1-4)GlcNAc
# Procedure, shortened: as §1
# [33] = biological target: Man(a1-2)Man(a1-2)Man(a1-3)Man
# Procedure, shortened: as §1
# [34] = biological target: Man(a1-2)Man(a1-2)Man(a1-6)[Man(a1-3)]Man
# Procedure, shortened: as §1
# Man(a1-2)Man(a1-3)Man = biological target: Man(a1-2)Man(a1-3)Man
# Procedure, shortened: as §1
binder,measurement,setting,value
"CBP21 (Serratia marcescens), O83009 (protein) MNKTSRTLLSLGLLSAAMFGVSQQANAHGYVESPASRAYQCKLQLNTQCGSVQYEPQSVEGLKGFPQAGPADGHIASADKSTFFELDQQTPTRWNKLNLKTGPNSFTWKLTARHSTTSWRYFITKPNWDASQPLTRASFDLTPFCQFNDGGAIPAAQVTHQCNIPADRSGSHVILAVWDIADTANAFYQAIDVNLSK",glycan array binding signal (z-score),[1],0.04
same,glycan array binding signal (z-score),GlcNAc(b1-3)Gal(b1-4)Glc,0.312
same,glycan array binding signal (z-score),[2],-0.039
same,glycan array binding signal (z-score),[3],0.081
same,glycan array binding signal (z-score),[4],0.333
same,glycan array binding signal (z-score),[5],-1.37
same,glycan array binding signal (z-score),[6],-1.78
same,glycan array binding signal (z-score),[7],-0.251
same,glycan array binding signal (z-score),[8],3.08
same,glycan array binding signal (z-score),[9],-0.108
same,glycan array binding signal (z-score),[10],-0.644
same,glycan array binding signal (z-score),[11],1.37
same,glycan array binding signal (z-score),[12],-0.325
same,glycan array binding signal (z-score),[13],0.77
same,glycan array binding signal (z-score),[14],0.553
same,glycan array binding signal (z-score),[15],0.87
same,glycan array binding signal (z-score),[16],0.539
same,glycan array binding signal (z-score),[17],0.342
same,glycan array binding signal (z-score),[18],0.901
same,glycan array binding signal (z-score),[19],-0.256
same,glycan array binding signal (z-score),[20],0.429
same,glycan array binding signal (z-score),[21],-1.31
same,glycan array binding signal (z-score),GlcNAc(b1-3)GalNAc,-1.19
same,glycan array binding signal (z-score),GlcNAc(b1-3)Man,-1.44
same,glycan array binding signal (z-score),[22],-0.033
same,glycan array binding signal (z-score),[23],0.08
same,glycan array binding signal (z-score),[24],-1.06
same,glycan array binding signal (z-score),[25],0.145
same,glycan array binding signal (z-score),GlcNAc(b1-4)GlcNAc,0.426
same,glycan array binding signal (z-score),[26],0.014
same,glycan array binding signal (z-score),[27],0.729
same,glycan array binding signal (z-score),[28],-0.98
same,glycan array binding signal (z-score),[29],-0.294
same,glycan array binding signal (z-score),[30],-0.448
same,glycan array binding signal (z-score),GlcNAc(b1-6)GalNAc,-0.697
same,glycan array binding signal (z-score),[31],0.252
same,glycan array binding signal (z-score),Kdn(a2-3)Gal(b1-3)GalNAc,-0.446
same,glycan array binding signal (z-score),Kdn(a2-3)Gal(b1-3)GlcNAc,0.001
same,glycan array binding signal (z-score),Kdn(a2-3)Gal(b1-4)Glc,-1.36
same,glycan array binding signal (z-score),Kdn(a2-3)Gal(b1-4)GlcNAc,-0.42
same,glycan array binding signal (z-score),[32],1.04
same,glycan array binding signal (z-score),Kdn(a2-6)Gal(b1-4)GlcNAc,-1.1
same,glycan array binding signal (z-score),[33],-0.437
same,glycan array binding signal (z-score),[34],0.017
same,glycan array binding signal (z-score),Man(a1-2)Man(a1-3)Man,-0.341

# As a short view, some entries already given:
binder,measurement,setting,value
"CBP21 (Serratia marcescens), O83009 (protein) MNKTSRTLLSLGLLSAAMFGVSQQANAHGYVESPASRAYQCKLQLNTQCGSVQYEPQSVEGLKGFPQAGPADGHIASADKSTFFELDQQTPTRWNKLNLKTGPNSFTWKLTARHSTTSWRYFITKPNWDASQPLTRASFDLTPFCQFNDGGAIPAAQVTHQCNIPADRSGSHVILAVWDIADTANAFYQAIDVNLSK",glycan array binding signal (z-score),[20],0.429
same,glycan array binding signal (z-score),[21],-1.31
same,glycan array binding signal (z-score),GlcNAc(b1-3)GalNAc,-1.19
